{"source": "PubChem BioAssay AID504774 (Drosophila RNAi Screening Center, 2011)", "assay": "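Fly genes whose loss alters survival after alkylation damage to DNA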 (primary screen)", "cell system": "Drosophila Kc167 cells", "knock-down reagent": "long dsRNA against Drosophila genes, about 0.25 µg dsRNA per well", "timing": "about 6 days: 3 days knock-down, then 3 days with or without MMS", "conditions": "methyl methanesulphonate 0.004% (w/v) for 3 days after knock-down", "measurement": "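Viability in wells given MMS, read as ATP luminescence, normalised by quantiles plate by plate and averaged across replicates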", "direction": "mean viability with MMS and viability with MMS: higher = more surviving cells after MMS", "note": "In all, the deposit lists about 23,000 reagents; this is an unselected part of those with a known target gene and a result. 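Values are quantile-normalised luminescence on an arbitrary scale; higher means more cells surviving MMS.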 Reagents against one gene are numbered here. Further read-outs or replicates are left out here."}
The opening 2 records, ahead of the listing:
{"gene knocked down": "Syn1 (GeneID 40424)", "dsRNA no.": 1, "mean viability with MMS": 3.87e6, "viability with MMS, replicate 1": 4.26e6}
{"gene knocked down": "Syn1 (GeneID 40424)", "dsRNA no.": 2, "mean viability with MMS": 3.56e6, "viability with MMS, replicate 1": 4.06e6}

Results, repeating the preview:
{"gene knocked down": "Syn1 (GeneID 40424)", "dsRNA no.": 1, "mean viability with MMS": 3.87e6, "viability with MMS, replicate 1": 4.26e6}
{"gene knocked down": "Syn1 (GeneID 40424)", "dsRNA no.": 2, "mean viability with MMS": 3.56e6, "viability with MMS, replicate 1": 4.06e6}
{"gene knocked down": "CG33453 (GeneID 2768851)", "dsRNA no.": 1, "mean viability with MMS": 3.47e6, "viability with MMS, replicate 1": 3.96e6}
{"gene knocked down": "Dh44 (GeneID 41170)", "dsRNA no.": 1, "mean viability with MMS": 3.53e6, "viability with MMS, replicate 1": 4.14e6}
{"gene knocked down": "Dh44 (GeneID 41170)", "dsRNA no.": 2, "mean viability with MMS": 3.64e6, "viability with MMS, replicate 1": 4.10e6}
{"gene knocked down": "baf (GeneID 34095)", "dsRNA no.": 1, "mean viability with MMS": 3.88e6, "viability with MMS, replicate 1": 4.71e6}
{"gene knocked down": "eEF1delta (GeneID 34363)", "dsRNA no.": 1, "mean viability with MMS": 3.64e6, "viability with MMS, replicate 1": 4.38e6}
{"gene knocked down": "CheA87a (GeneID 41642)", "dsRNA no.": 1, "mean viability with MMS": 3.73e6, "viability with MMS, replicate 1": 4.26e6}
{"gene knocked down": "CG42562 (GeneID 37008)", "dsRNA no.": 1, "mean viability with MMS": 3.58e6, "viability with MMS, replicate 1": 4.20e6}
{"gene knocked down": "Nup133 (GeneID 42680)", "dsRNA no.": 1, "mean viability with MMS": 3.31e6, "viability with MMS, replicate 1": 3.76e6}
{"gene knocked down": "nht (GeneID 34902)", "dsRNA no.": 1, "mean viability with MMS": 3.57e6, "viability with MMS, replicate 1": 3.81e6}
{"gene knocked down": "Muc14A (GeneID 318097)", "dsRNA no.": 1, "mean viability with MMS": 3.40e6, "viability with MMS, replicate 1": 3.90e6}
{"gene knocked down": "CG9391 (GeneID 40346)", "dsRNA no.": 1, "mean viability with MMS": 3.50e6, "viability with MMS, replicate 1": 4.03e6}
{"gene knocked down": "CG5290 (GeneID 39998)", "dsRNA no.": 1, "mean viability with MMS": 3.56e6, "viability with MMS, replicate 1": 4.07e6}
{"gene knocked down": "atilla (GeneID 34647)", "dsRNA no.": 1, "mean viability with MMS": 3.71e6, "viability with MMS, replicate 1": 4.22e6}
{"gene knocked down": "CG17239 (GeneID 59224)", "dsRNA no.": 1, "mean viability with MMS": 3.50e6, "viability with MMS, replicate 1": 4.01e6}
{"gene knocked down": "alphaCOP (GeneID 38199)", "dsRNA no.": 1, "mean viability with MMS": 3.55e6, "viability with MMS, replicate 1": 4.18e6}
{"gene knocked down": "Ir56b (GeneID 37250)", "dsRNA no.": 1, "mean viability with MMS": 3.50e6, "viability with MMS, replicate 1": 3.90e6}
{"gene knocked down": "Sh3beta (GeneID 38820)", "dsRNA no.": 1, "mean viability with MMS": 3.55e6, "viability with MMS, replicate 1": 3.98e6}
{"gene knocked down": "Sh3beta (GeneID 38820)", "dsRNA no.": 2, "mean viability with MMS": 3.75e6, "viability with MMS, replicate 1": 4.31e6}
{"gene knocked down": "dsd (GeneID 43315)", "dsRNA no.": 1, "mean viability with MMS": 3.59e6, "viability with MMS, replicate 1": 4.16e6}
{"gene knocked down": "dsd (GeneID 43315)", "dsRNA no.": 2, "mean viability with MMS": 3.63e6, "viability with MMS, replicate 1": 4.09e6}
{"gene knocked down": "CG10969 (GeneID 39451)", "dsRNA no.": 1, "mean viability with MMS": 3.65e6, "viability with MMS, replicate 1": 4.16e6}
{"gene knocked down": "CG16824 (GeneID 5740834)", "dsRNA no.": 1, "mean viability with MMS": 3.37e6, "viability with MMS, replicate 1": 3.73e6}
